Test results published in US20210309652A1, “ISOXAZOLINE COMPOUNDS FOR CONTROLLING INVERTEBRATE PESTS” (priority 2018, published 2021).
Some entries share one result that the patent states for a list of compounds. At least one structure is not confirmed: it was looked up by name or label, or the drawing left a doubt.

Columns and labels:
Format in all cases: in vivo
[1] = tested on: potato leafhopper (Empoasca fabae (Harris)); test: Test C: control of potato leafhopper on Soleil bean plant, contact and/or systemic; conditions: sprayed at 10 ppm; 6 days
[2] = tested on: Western Flower Thrips (Frankliniella occidentalis (Pergande)); test: Test G: control of Western Flower Thrips on Soleil bean plant, contact and/or systemic; conditions: 6 days
[3] = tested on: diamondback moth (Plutella xylostella (L.)); test: Test A: control of diamondback moth on mustard plant, foliar spray; conditions: 6 days
[4] = tested on: fall armyworm (Spodoptera frugiperda (J. E. Smith)); test: Test B: control of fall armyworm on corn (maize) plant, foliar spray; conditions: 6 days

Structure (SMILES) | mortality [1] | control efficacy: plant damage (30% or less plant damage and/or 100% mortality) ([2]; sprayed at 10 ppm) | control efficacy: feeding damage (40% or less feeding damage and/or 100% mortality) ([3]; sprayed at 2 ppm) | control efficacy: feeding damage (40% or less feeding damage and/or 100% mortality) ([3]; sprayed at 10 ppm) | control efficacy: feeding damage (40% or less feeding damage and/or 100% mortality) ([4]; sprayed at 2 ppm) | control efficacy: feeding damage (40% or less feeding damage and/or 100% mortality) ([4]; sprayed at 10 ppm) | control efficacy: plant damage (30% or less plant damage and/or 100% mortality) ([2]; sprayed at 2 ppm)
CO/N=C\NC(=O)c1ccc(C2=NOC(c3cc(Cl)c(F)c(Cl)c3)(C(F)(F)F)C2)c2occc12 (centres unmarked) [Compound 92] | at least 80% | ≤ 30% | ≤ 40% | ≤ 40% | ≤ 40% | ≤ 40% | –
O=C(NCc1ncccn1)c1ccc(C2=NOC(c3cc(Cl)cc(Cl)c3)(C(F)(F)F)C2)c2sccc12 (centres unmarked) [Compound 99] | at least 80% | ≤ 30% | ≤ 40% | ≤ 40% | ≤ 40% | ≤ 40% | ≤ 30%
COC(=O)C(C)NC(=O)c1ccc(C2=NOC(c3cc(Cl)cc(Cl)c3)(C(F)(F)F)C2)c2sccc12 (centres unmarked) [Compound 100] | at least 80% | ≤ 30% | ≤ 40% | ≤ 40% | – | ≤ 40% | ≤ 30%
O=C(NCc1ncccn1)c1ccc(C2=NOC(c3cc(Cl)c(F)c(Cl)c3)(C(F)(F)F)C2)c2sccc12 (centres unmarked) [Compound 102] | at least 80% | ≤ 30% | ≤ 40% | ≤ 40% | ≤ 40% | ≤ 40% | ≤ 30%
CCN1OC[C@@H](NC(=O)c2ccc(C3=NOC(c4cc(Cl)c(F)c(Cl)c4)(C(F)(F)F)C3)c3sccc23)C1=O (some centres unmarked) [Compound 103] | at least 80% | ≤ 30% | ≤ 40% | ≤ 40% | ≤ 40% | ≤ 40% | ≤ 30%
COC(=O)C(C)NC(=O)c1ccc(C2=NOC(c3cc(Cl)c(F)c(Cl)c3)(C(F)(F)F)C2)c2sccc12 (centres unmarked) [Compound 104] | at least 80% | ≤ 30% | ≤ 40% | ≤ 40% | ≤ 40% | ≤ 40% | ≤ 30%
C[C@@H](NC(=O)c1ccc(C2=NOC(c3cc(Cl)c(F)c(Cl)c3)(C(F)(F)F)C2)c2sccc12)C(N)=O (some centres unmarked) [Compound 105] | at least 80% | ≤ 30% | ≤ 40% | ≤ 40% | ≤ 40% | ≤ 40% | ≤ 30%
CCN1OC[C@@H](NC(=O)c2ccc(C3=NOC(c4cc(Cl)cc(Cl)c4)(C(F)(F)F)C3)c3sccc23)C1=O (some centres unmarked) [Compound 106] | at least 80% | ≤ 30% | ≤ 40% | ≤ 40% | ≤ 40% | ≤ 40% | ≤ 30%
CC(NC(=O)c1ccc(C2=NOC(c3cc(Cl)c(F)c(Cl)c3)(C(F)(F)F)C2)c2sccc12)c1cnccn1 (centres unmarked) [Compound 109] | at least 80% | ≤ 30% | ≤ 40% | ≤ 40% | ≤ 40% | ≤ 40% | ≤ 30%
N#CCNC(=O)c1ccc(C2=NOC(c3cc(Cl)c(F)c(Cl)c3)(C(F)(F)F)C2)c2sccc12 (centres unmarked) [Compound 110] | at least 80% | ≤ 30% | ≤ 40% | ≤ 40% | ≤ 40% | ≤ 40% | ≤ 30%
O=C(NC1CC1)c1ccc(C2=NOC(c3cc(Cl)c(F)c(Cl)c3)(C(F)(F)F)C2)c2sccc12 (centres unmarked) [Compound 112] | at least 80% | ≤ 30% | ≤ 40% | ≤ 40% | ≤ 40% | ≤ 40% | ≤ 30%
O=C(NC1CSC1)c1ccc(C2=NOC(c3cc(Cl)c(F)c(Cl)c3)(C(F)(F)F)C2)c2sccc12 (centres unmarked) [Compound 113] | at least 80% | ≤ 30% | ≤ 40% | ≤ 40% | ≤ 40% | ≤ 40% | –
O=C(NC1CS(=O)(=O)C1)c1ccc(C2=NOC(c3cc(Cl)c(F)c(Cl)c3)(C(F)(F)F)C2)c2sccc12 (centres unmarked) [Compound 114] | at least 80% | ≤ 30% | ≤ 40% | ≤ 40% | ≤ 40% | ≤ 40% | ≤ 30%
CNC(=O)C(C)NC(=O)c1ccc(C2=NOC(c3cc(Cl)c(F)c(Cl)c3)(C(F)(F)F)C2)c2sccc12 (centres unmarked) [Compound 115] | at least 80% | – | ≤ 40% | – | ≤ 40% | – | ≤ 30%
